# Some of these results come from one statement about several compounds together.
# Tested on: E. coli CVB-1
# Conditions: PPMO or meropenem given separately
smiles,measurement,value
C[C@@H](O)[C@H]1C(=O)N2C(C(=O)O)=C(S[C@@H]3CN[C@H](C(=O)N(C)C)C3)[C@H](C)[C@H]12 [meropenem],time by which all mice died,≤ 18 h
